Data on one molecule can be found in article PMC4538816.

Results are given in words; binding and its absence hold for the method and conditions named. Binding seen in cells or lysates may run through a third protein.

The test addresses T1, PALB2 (human (endogenous in human cells; cell line of the IP not named)) (UniProt Q86YC2).
T1 sequence: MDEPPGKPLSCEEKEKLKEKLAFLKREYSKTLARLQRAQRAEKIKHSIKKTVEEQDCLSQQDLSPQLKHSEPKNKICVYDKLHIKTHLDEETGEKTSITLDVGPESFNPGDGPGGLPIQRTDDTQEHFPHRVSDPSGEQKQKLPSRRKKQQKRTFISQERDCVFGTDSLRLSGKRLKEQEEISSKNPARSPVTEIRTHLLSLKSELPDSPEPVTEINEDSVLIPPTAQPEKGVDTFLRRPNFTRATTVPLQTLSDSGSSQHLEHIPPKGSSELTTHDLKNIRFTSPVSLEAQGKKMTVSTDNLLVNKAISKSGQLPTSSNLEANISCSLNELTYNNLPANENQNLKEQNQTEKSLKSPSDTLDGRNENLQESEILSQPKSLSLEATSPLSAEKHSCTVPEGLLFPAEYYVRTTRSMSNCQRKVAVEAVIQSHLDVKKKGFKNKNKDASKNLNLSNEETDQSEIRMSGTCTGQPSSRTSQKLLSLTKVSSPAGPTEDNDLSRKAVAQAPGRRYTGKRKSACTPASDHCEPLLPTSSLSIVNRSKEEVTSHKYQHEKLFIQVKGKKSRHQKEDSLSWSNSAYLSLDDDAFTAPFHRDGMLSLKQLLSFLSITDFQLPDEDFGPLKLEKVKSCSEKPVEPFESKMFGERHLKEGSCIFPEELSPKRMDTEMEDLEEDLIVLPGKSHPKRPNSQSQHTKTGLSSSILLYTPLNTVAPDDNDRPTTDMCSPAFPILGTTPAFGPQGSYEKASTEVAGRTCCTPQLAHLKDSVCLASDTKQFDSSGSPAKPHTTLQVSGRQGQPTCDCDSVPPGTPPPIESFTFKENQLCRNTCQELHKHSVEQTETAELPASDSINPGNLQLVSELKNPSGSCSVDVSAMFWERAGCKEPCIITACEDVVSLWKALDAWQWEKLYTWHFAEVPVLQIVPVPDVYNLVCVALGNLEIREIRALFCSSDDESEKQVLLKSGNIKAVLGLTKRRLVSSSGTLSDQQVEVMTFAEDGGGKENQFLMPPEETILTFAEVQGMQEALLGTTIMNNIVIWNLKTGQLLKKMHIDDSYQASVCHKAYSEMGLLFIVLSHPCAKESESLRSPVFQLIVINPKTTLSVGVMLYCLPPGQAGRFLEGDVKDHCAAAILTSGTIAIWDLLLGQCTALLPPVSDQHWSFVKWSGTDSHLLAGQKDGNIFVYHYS
The test is described as follows: co-IP; IP of endogenous PALB2 or RAP80 (2 ug antibody, protein A beads, 4°C) from benzonase-treated lysate in EBC-150 (50 mM Tris pH 7.3, 150 mM NaCl, 0.5% NP-40, 1 mM MgCl2); washes in EBC-EDTA; blots for endogenous proteins; in Figure 6D 6 h after 20 Gy of IR, cells treated with siRNAs against USP26 or USP37 (PALB2-BRCA1 markedly reduced).

B1: RAP80 (protein, UniProt Q96RL1 1-719)
chain: MPRRKKKVKEVSESRNLEKKDVETTSSVSVKRKRRLEDAFIVISDSDGEEPKEENGLQKTKTKQSNRAKCLAKRKIAQMTEEEQFALALKMSEQEAREVNSQEEEEEELLRKAIAESLNSCRPSDASATRSRPLATGPSSQSHQEKTTDSGLTEGIWQLVPPSLFKGSHISQGNEAEEREEPWDHTEKTEEEPVSGSSGSWDQSSQPVFENVNVKSFDRCTGHSAEHTQCGKPQESTGRGSAFLKAVQGSGDTSRHCLPTLADAKGLQDTGGTVNYFWGIPFCPDGVDPNQYTKVILCQLEVYQKSLKMAQRQLLNKKGFGEPVLPRPPSLIQNECGQGEQASEKNECISEDMGDEDKEERQESRASDWHSKTKDFQESSIKSLKEKLLLEEEPTTSHGQSSQGIVEETSEEGNSVPASQSVAALTSKRSLVLMPESSAEEITVCPETQLSSSETFDLEREVSPGSRDILDGVRIIMADKEVGNKEDAEKEVAISTFSSSNQVSCPLCDQCFPPTKIERHAMYCNGLMEEDTVLTRRQKEAKTKSDSGTAAQTSLDIDKNEKCYLCKSLVPFREYQCHVDSCLQLAKADQGDGPEGSGRACSTVEGKWQQRLKNPKEKGHSEGRLLSFLEQSEHKTSDADIKSSETGAFRVPSPGMEEAGCSREMQSSFTRRDLNESPVKSFVSISEATDCLVDFKKQVTVQPGSRTRTKAGRGRRRKF
Consider B1, for which the binding entry was “no binding”.
